Test results from patent US20240150451A1.
No constants are given. Whether binding was seen depends on the method and setting. Some results given as binding are weak or reduced against the parent protein; the word gives no strength.

Amino acid sequences for entries named in this document (tags omitted). A change or cut given only in a name is not applied to a line headed by its entry. Chains listed by the source or under a name are the forms on record and can include a tag or linker.
PHF-tau (paired helical filament tau; sarcosyl insoluble prep from human AD brain) (P10636, form named): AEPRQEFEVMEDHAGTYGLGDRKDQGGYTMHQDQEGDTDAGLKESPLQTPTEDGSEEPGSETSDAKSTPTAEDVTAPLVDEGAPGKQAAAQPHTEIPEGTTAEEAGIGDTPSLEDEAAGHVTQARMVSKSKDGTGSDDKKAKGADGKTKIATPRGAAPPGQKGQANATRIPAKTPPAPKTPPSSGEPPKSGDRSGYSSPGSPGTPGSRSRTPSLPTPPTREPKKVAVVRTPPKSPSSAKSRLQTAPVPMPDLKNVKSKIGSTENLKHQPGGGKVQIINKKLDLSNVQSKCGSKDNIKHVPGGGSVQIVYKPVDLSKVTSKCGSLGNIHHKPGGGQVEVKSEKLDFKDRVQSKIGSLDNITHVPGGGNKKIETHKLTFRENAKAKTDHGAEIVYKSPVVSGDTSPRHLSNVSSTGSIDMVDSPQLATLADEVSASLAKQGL
mouse tau (non-aggregated tau in WT mouse brain sections) (P10637, form named): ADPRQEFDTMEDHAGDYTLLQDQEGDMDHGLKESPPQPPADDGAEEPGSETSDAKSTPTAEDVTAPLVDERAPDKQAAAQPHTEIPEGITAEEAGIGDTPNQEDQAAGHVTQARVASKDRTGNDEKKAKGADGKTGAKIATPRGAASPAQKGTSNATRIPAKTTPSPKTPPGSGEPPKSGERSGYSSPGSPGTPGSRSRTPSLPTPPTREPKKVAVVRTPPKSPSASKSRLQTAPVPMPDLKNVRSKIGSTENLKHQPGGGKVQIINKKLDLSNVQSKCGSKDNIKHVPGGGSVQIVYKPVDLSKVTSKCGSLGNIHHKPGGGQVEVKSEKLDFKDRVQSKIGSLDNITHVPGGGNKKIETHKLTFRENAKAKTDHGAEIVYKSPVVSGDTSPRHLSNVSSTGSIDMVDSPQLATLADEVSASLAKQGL

Tests used:
[1] = target: soluble tau in human brain (non-AD and AD brain cryosections) (human) (UniProt P10636); test: immunohistochemistry on cryosections of AD and non-AD brain
[2] = target: PHF-tau (paired helical filament tau; sarcosyl insoluble prep from human AD brain) (human) (UniProt P10636); test: direct ELISA, 25 ng/well coated PHF-tau, hybridoma screening
[3] = target: soluble tau in human brain (non-AD and AD brain cryosections) (human) (UniProt P10636); test: western blot of human brain extract, antibody at 1 µg/mL
[4] = target: PHF-tau (paired helical filament tau; sarcosyl insoluble prep from human AD brain) (human) (UniProt P10636); test: immunohistochemistry on cryosections of AD brain (aggregated tau in situ)
[5] = target: PHF-tau (paired helical filament tau; sarcosyl insoluble prep from human AD brain) (human) (UniProt P10636); test: western blot strips of a human AD brain derived PHF sample (1-well gel)
[6] = target: PHF-tau (paired helical filament tau; sarcosyl insoluble prep from human AD brain) (human) (UniProt P10636); test: western blot of a PHF prep from postmortem AD brain, antibody at 1 µg/mL
[7] = target: mouse tau (non-aggregated tau in WT mouse brain sections) (mouse) (UniProt P10637); test: immunohistochemistry on paraffin sections of WT mouse brain; no signal in Tau KO
[8] = target: mouse tau (non-aggregated tau in WT mouse brain sections) (mouse) (UniProt P10637); test: western blot of brain homogenate (20 µg total protein), antibody at 1 µg/mL
[9] = target: tau seeds from human AD brain (total homogenate of cryopreserved AD brain tissue) (human) (UniProt P10636); test: immunodepletion of human AD brain homogenate with antibody and protein G beads; residual aggregates by hTau60/hTau60 MSD assay

Measured: binding

B1: PT66 monoclonal antibody (recombinant, mouse IgG2a/kappa) (antibody, V domains shown)
VH: QVQLQQPGAELVKPGASVKMSCKASGYTFTSYWITWVKQRPGQGLEWIGDIHPGRGSTKSNEKFKSKATLTVDTSSSTAYMQFSSLTSEDSAVYYCARRWGFDYWGQGTTLTVSS
VL: DIVITQDELSNPVTSGESVSISCRSSKSLLYKDGKTYLNWFLQRPGQSPQLLIYLMSTRASGVSDRFSGSGSGTDFTLEISRVKAEDVGVYYCQQLVDYPLTFGAGTKLELKR
binds: all assays above

B2: hTau60 monoclonal antibody (recombinant, mouse IgG2a/kappa) (antibody, V domains shown)
VH: EVQLQQSGPELVKPGTSVKISCKVFGYTFTDYYMNWVKQSHGKSLEWIGDINPDNGETTYNQKFKGKATLTVDKSSSTAYMELRSLTSEDSAVYYCAKGATFVYWGQGTLVTVSA
VL: DVVMTQTPLSLPVSLGDQASISCISSQSLVHSTGTTFLHWFLQKPGQSPKLLIYKVSNRFSGVPDRFSGSGSGTDFTLKISRVEAEDLGFYFCSQSTYFPLTFGSGTKLEIKR
not listed: [5]
binds: all other assays above

B3: PT53 monoclonal antibody (recombinant, mouse IgG2a/kappa) (antibody, V domains shown)
VH: EVKLMESGGGLVQPGASLRLSCAASGFTFTDYYMSWVRQPPGKAPEWLALIRNKANGYTTKYAASVKGRFTISRDNSQNILYLQMNTLRAEDSATYYCVKAVWFAYWGQGTLVTVSA
VL: DIVITQDELSNPVTSGESVSISCRSSKSLLYKDGKTYLNWFLQRPGQSPQLLIYLMSTRASGVSDRFSGSGSGTDFTLEISRVKAEDVGVYYCLQLVEYPYTFGGGTKLEIKR
binds: [2]

B4: PT81 monoclonal antibody (recombinant, mouse IgG2a/kappa) (antibody, V domains shown)
VH: QVQLQQPGAELVRPGASVILSCKASGYTFTNSWIHWVKQRPGRVLEWIGRIDPNSGGTRYNENFKSKATLTVDKPSSTAYMQLSSLTSEDSAVYFCSRGVLHDYWGQGTTLTVSS
VL: DIVITQDELSNPVTSGESVSISCRSSKSLLYKDGKTYLNWFLQRPGQSPQLLIYLMSTRASGVSDRFSVSGSGTDFTLEISRVQAEDVGVYYCQQLVEYPYTFGGGTKLEIKR
binds: [2]
